# Results deposited as PubChem BioAssay AID686943 (Drosophila RNAi Screening Center, 2013)
# Test: 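Search across the genome for regulators of signalling from receptor tyrosine kinase to ERK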 (primary screen)
# Cells: Drosophila S2R+ haemocyte-like cells expressing YFP-tagged ERK (Rolled)
# Reagents: long dsRNA against Drosophila genes
# Conditions: insulin stimulation versus unstimulated cells; dose and duration not given
# Measured: 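Antibody staining for doubly phosphorylated ERK divided by ERK-YFP signal, as plate z-scores, in insulin-treated and untreated cells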
# Direction: replicate 1, z-score of dpERK with insulin and replicate 2, z-score of dpERK with insulin: higher = more active ERK per ERK-YFP after insulin; replicate 1, z-score of dpERK under basal conditions: higher = more basal active ERK per ERK-YFP
# The deposit covers about 23,000 reagents; this is an unselected part of those that have a named target and a result. 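Extra replicates exist only for a retested subset of genes; insulin dose and duration not given; both raised and lowered dpERK matter.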 Reagents against one gene are numbered here. A plus sign joins genes that one reagent is predicted to hit. Not all columns of the deposit are shown. Not stated in the record: the amount of reagent, the time to read-out.
Gene,dsRNA no.,"replicate 1, z-score of dpERK with insulin","replicate 2, z-score of dpERK with insulin","replicate 1, z-score of dpERK under basal conditions"
mRpL18,1,-1.05,-0.15,1.41
Mst33A,1,0.75,0.19,0.13
N,1,-0.37,-0.2,0.61
Hipk,1,4.32,0.9,-0.66
Hipk,2,-0.95,-0.31,-0.54
dpr17,1,-0.02,0.12,0.69
dpr17,2,-3.24,-2.32,-3.03
dpr17,3,0.21,-0.25,-0.45
CG1494,1,-0.52,0.31,-0.69
CG2865,1,-0.35,-0.31,0.21
CG2865,2,-0.78,-1.16,0.65
CG2604,1,-0.5,-0.91,-0.6
VhaM9.7-b,1,-0.22,0.1,-0.06
Rab5,1,-0.55,-1.92,0.9
Tsen34,1,0.55,0.06,-0.4
CG8736,1,0.08,-0.06,0.43
Pdxk,1,-0.76,-0.25,0.56
CG6432,1,0.28,-0.06,-0.38
z,1,-1.06,-2.45,1.15
betaTub56D,1,-1.34,-0.57,0.94
CG3251,1,-0.43,-0.06,-2.25
mr,1,-0.14,-0.24,-0.22
mr,2,-0.47,-0.49,-0.06
Sec24CD,1,0.64,-0.38,-0.4
eIF4H1,1,-0.2,-2.1,-0.34
CG13705,1,0.94,0.2,-0.6
CG13705,2,0.72,-1.84,-0.59
Sod1,1,0.31,0.47,1.33
CG5003,1,0.16,-0.35,-1.05
CG13806,1,0.01,-0.65,-0.08
Rcc1,1,0.4,0.33,-0.85
Yp1,1,-0.02,-0.36,0.86
Mitofilin,1,-1.56,1.03,0.31
CG12883,1,-0.39,-0.15,0.09
Np,1,0.66,0.07,-1.14
Np,2,0.81,0.4,0.22
Np,3,0.18,0.47,-0.54
CG8093,1,0.22,0.47,-0.96
CG15414,1,0.84,0.14,0.52
CG15414,2,0.36,0.26,0.1
CG33284,1,0.16,1.08,-1.25
CG14423,1,-0.27,-0.26,-0.63
Phf7,1,0.49,0.01,0.82
CG14456,1,0.22,0.33,-0.62
ZnT63C,1,-0.61,-0.79,-1.41
ZnT63C,2,-0.77,-0.66,-0.31
ZnT63C,3,1.3,0.43,0.59
ZnT63C,4,-0.42,-0.8,-1.96
nclb,1,-0.13,0.4,-0.36
CG30058 + CG34235 + CG34312,1,0.02,-0.18,-0.22
Abd-B,1,0.16,0.05,-0.14
Abd-B,2,-0.08,0.5,0.2
CycB3,1,-0.33,-0.23,-0.54
Obp56a,1,0.75,1.57,-0.17
CG32061,1,0.2,0.25,-0.28
Tsp86D,1,-0.54,-0.62,0.01
ytr,1,0.47,0.32,0.14
ytr,2,0.73,0.61,-0.4
